# Test results published in the supplement of paper PMC7666118.
# Protein sequences, listed by entry. Tags and fused reporters are not part of them. Lines headed by an entry give the natural chain unless they say otherwise; changes in a name come on top.
# UniProt Q6ZW49, whole entry: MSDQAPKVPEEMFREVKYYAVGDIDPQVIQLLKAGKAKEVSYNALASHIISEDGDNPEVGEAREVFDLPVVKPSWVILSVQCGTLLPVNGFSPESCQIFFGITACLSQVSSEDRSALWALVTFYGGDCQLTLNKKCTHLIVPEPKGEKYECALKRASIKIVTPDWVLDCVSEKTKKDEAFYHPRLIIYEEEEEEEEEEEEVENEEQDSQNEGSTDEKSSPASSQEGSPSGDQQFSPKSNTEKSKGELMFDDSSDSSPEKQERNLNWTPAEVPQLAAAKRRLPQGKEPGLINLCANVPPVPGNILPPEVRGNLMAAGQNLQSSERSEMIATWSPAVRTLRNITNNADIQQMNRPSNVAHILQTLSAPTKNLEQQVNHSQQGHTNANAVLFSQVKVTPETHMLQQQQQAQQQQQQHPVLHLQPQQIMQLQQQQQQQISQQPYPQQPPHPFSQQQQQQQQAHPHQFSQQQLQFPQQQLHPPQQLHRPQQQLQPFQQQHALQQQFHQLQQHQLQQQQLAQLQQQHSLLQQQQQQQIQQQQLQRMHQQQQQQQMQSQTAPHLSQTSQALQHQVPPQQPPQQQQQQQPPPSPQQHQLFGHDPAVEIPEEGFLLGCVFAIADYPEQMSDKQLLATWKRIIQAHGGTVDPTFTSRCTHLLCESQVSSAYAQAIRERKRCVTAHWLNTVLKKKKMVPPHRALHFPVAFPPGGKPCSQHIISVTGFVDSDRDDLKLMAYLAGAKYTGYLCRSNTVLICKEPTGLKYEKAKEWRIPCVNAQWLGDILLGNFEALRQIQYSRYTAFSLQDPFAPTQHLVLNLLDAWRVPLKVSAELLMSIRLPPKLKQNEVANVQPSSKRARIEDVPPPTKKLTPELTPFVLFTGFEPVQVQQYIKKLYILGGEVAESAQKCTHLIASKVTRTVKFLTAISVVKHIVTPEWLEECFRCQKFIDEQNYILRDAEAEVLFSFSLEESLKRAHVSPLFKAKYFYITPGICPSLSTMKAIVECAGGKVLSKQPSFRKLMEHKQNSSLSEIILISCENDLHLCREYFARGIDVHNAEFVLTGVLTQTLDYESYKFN
# UniProt Q9NRP0: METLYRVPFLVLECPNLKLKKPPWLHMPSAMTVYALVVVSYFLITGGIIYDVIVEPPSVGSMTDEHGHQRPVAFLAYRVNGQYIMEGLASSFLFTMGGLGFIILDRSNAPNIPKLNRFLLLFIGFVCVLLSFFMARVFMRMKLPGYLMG
# UniProt Q9UBD5: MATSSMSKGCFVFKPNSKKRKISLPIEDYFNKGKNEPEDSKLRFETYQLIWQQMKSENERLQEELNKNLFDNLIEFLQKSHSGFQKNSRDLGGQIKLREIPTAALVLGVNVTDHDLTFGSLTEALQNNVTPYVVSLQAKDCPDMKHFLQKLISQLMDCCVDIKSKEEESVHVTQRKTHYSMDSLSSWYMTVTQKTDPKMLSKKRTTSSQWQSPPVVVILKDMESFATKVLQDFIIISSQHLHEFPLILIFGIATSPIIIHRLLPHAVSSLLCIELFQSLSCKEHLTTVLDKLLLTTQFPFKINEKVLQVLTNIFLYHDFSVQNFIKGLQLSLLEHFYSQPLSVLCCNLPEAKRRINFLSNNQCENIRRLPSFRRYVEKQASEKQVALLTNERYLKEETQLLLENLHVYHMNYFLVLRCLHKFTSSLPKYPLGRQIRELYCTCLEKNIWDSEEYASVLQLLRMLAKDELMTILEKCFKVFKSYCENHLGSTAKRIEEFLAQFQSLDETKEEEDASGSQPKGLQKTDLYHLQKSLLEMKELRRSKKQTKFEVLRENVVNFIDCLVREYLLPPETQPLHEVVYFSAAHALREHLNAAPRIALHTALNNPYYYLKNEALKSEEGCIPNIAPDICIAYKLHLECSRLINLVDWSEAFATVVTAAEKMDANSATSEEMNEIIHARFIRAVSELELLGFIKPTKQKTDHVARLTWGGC
# UniProt Q96CB9: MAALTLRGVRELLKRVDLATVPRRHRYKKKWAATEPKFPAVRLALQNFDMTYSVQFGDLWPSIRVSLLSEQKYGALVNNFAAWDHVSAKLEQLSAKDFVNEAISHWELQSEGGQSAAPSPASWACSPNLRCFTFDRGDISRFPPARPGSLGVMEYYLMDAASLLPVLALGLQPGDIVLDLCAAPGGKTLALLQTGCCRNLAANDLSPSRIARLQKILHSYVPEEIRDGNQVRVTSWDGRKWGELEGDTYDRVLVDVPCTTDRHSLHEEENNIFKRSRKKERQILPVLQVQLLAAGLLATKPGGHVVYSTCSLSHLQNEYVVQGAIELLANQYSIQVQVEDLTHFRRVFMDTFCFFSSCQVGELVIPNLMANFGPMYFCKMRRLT
# UniProt Q86U86, whole entry: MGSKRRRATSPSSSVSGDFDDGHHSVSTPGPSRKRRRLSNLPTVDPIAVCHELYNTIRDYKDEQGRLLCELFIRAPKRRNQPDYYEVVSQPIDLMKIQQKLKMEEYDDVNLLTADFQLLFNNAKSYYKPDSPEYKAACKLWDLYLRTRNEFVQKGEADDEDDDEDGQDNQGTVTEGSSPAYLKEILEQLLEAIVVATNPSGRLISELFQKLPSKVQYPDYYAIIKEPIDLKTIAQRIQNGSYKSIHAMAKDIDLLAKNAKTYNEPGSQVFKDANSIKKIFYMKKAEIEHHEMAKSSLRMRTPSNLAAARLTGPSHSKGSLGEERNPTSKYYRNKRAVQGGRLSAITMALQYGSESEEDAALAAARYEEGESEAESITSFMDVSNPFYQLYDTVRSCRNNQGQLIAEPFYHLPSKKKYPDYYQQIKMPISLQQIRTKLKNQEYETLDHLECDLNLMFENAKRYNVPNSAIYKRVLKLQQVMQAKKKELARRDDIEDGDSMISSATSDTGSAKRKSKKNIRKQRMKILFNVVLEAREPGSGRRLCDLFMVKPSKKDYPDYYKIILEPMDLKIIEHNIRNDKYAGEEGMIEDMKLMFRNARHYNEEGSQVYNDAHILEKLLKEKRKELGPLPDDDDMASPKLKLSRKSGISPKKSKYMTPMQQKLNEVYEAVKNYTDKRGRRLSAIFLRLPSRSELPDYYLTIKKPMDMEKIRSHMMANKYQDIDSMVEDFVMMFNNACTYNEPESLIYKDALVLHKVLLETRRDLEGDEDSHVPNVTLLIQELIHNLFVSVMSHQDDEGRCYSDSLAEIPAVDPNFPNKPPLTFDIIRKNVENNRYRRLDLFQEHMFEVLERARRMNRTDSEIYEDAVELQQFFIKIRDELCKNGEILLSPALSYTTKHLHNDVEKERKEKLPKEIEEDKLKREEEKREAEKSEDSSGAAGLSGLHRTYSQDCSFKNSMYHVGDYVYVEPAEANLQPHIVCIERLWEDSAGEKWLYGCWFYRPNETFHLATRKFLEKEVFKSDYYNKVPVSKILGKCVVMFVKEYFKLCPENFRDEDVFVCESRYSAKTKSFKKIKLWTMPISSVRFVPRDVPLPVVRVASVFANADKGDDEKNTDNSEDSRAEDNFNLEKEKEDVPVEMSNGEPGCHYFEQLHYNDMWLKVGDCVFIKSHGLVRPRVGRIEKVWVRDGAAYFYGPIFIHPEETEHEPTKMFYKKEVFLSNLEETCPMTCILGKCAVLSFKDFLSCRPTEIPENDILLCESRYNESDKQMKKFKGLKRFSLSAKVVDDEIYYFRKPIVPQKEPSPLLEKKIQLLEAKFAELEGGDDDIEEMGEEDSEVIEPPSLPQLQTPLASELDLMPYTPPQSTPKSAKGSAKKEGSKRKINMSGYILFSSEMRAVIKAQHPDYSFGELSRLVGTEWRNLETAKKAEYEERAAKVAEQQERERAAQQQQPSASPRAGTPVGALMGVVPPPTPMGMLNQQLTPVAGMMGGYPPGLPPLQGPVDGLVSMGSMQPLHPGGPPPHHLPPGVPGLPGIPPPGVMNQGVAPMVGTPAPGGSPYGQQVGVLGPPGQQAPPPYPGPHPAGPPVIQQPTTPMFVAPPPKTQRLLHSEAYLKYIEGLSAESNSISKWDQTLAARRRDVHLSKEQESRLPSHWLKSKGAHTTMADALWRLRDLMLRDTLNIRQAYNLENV
# UniProt P22059, whole entry: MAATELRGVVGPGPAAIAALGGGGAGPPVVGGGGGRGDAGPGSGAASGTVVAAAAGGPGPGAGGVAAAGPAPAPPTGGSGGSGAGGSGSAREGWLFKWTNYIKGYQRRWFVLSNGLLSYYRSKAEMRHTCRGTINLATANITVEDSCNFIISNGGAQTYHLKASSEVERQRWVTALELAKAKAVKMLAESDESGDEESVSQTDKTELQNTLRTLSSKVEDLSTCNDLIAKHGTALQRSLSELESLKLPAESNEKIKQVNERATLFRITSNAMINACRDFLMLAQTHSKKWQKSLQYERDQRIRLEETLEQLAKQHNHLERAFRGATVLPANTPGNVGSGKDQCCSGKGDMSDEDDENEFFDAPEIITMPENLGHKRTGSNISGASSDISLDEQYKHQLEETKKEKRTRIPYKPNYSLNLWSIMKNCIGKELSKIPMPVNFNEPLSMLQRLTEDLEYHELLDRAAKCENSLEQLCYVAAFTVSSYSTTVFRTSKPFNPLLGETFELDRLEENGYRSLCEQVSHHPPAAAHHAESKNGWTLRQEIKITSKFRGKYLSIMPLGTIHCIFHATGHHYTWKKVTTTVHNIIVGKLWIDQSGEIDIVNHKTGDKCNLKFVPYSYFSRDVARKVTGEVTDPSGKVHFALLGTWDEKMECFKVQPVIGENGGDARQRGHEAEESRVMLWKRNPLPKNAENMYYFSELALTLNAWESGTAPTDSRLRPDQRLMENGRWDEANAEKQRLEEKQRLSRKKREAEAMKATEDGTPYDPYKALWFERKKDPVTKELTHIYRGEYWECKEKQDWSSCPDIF
# UniProt Q9H4D5: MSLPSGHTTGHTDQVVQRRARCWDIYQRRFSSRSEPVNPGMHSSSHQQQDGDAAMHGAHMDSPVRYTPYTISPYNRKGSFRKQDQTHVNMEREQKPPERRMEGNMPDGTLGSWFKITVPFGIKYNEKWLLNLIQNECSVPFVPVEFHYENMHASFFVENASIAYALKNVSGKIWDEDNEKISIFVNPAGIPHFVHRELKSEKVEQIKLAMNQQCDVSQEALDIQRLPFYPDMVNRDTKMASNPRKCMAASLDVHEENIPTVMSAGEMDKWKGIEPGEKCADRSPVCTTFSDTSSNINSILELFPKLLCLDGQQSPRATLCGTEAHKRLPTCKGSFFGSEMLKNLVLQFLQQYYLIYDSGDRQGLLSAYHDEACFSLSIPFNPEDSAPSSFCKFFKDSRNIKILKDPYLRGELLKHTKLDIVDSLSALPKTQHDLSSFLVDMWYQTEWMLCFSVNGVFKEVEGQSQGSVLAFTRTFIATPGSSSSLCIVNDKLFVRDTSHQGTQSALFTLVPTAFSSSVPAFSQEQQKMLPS
# UniProt O00623: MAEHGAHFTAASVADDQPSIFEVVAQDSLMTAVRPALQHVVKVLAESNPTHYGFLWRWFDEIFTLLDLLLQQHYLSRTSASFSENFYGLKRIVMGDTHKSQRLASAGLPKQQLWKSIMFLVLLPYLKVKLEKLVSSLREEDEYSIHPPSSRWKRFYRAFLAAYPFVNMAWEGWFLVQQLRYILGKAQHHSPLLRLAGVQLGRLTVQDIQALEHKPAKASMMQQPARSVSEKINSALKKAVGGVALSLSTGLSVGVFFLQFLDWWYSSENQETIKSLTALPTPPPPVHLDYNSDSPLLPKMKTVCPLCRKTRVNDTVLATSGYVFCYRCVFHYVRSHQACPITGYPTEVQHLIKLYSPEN
# UniProt Q6ZVK8: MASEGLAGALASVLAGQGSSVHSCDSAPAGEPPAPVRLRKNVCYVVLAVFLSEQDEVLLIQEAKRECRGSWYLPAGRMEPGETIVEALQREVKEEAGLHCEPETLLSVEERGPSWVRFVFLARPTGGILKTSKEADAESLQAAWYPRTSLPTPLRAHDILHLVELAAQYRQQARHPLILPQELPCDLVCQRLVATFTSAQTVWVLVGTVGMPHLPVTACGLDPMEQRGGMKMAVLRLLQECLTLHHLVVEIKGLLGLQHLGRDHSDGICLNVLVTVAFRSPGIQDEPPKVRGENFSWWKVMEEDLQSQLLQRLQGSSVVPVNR
# UniProt Q16875: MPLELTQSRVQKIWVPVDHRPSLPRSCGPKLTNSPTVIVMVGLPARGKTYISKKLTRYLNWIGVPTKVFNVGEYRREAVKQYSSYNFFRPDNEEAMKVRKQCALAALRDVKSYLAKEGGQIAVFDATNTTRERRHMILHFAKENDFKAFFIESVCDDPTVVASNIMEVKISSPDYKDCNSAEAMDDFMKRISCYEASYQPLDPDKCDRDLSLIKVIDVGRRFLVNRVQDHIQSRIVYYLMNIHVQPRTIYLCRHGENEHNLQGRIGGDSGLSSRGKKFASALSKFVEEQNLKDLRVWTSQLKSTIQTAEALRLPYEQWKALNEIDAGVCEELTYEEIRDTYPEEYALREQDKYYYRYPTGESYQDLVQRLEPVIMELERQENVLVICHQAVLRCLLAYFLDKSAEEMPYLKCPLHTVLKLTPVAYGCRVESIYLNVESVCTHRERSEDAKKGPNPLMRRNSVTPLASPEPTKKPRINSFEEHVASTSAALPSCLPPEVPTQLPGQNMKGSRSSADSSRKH
# This is one part of the list.
# Compound: COc1ccc(Cn2ccc3ccc(C(=O)NO)cc32)cc1
# Assay: dose-dependent thermal stabilisation call (2D-TPP, DLPTP, 10% FDR) (binary (1 = stabilised)); higher = stabilised by the compound
# Conditions: system: HL-60 intact cells; concentration range 0.04-10 µM
row,Target,dose-dependent thermal stabilisation call
1,P2RY8 (UniProt Q86VZ1),inactive: 0
2,PCF11 (UniProt O94913),inactive: 0
3,PAXIP1 (UniProt Q6ZW49),inactive: 0
4,PEX5 (UniProt P50542),inactive: 0
5,OXSM (UniProt Q9NWU1),inactive: 0
6,OSBPL9 (UniProt Q96SU4),inactive: 0
7,OGFOD2 (UniProt Q6N063),inactive: 0
8,OSTC (UniProt Q9NRP0),inactive: 0
9,ORC3L (UniProt Q9UBD5),inactive: 0
10,NUP210 (UniProt Q8TEM1),inactive: 0
11,PDE4A (UniProt P27815),inactive: 0
12,PDCD2L (UniProt Q9BRP1),inactive: 0
13,PEX16 (UniProt Q9Y5Y5),inactive: 0
14,ORC5L (UniProt O43913),inactive: 0
15,NRAS (UniProt P01111),inactive: 0
16,NSUN4 (UniProt Q96CB9),inactive: 0
17,PEPD (UniProt P12955),inactive: 0
18,PBRM1 (UniProt Q86U86),inactive: 0
19,OSBP (UniProt P22059),inactive: 0

row,Target,dose-dependent thermal stabilisation call
1,NXF3 (UniProt Q9H4D5),inactive: 0
2,PDCL3 (UniProt Q9H2J4),inactive: 0
3,PDCD6 (UniProt O75340),inactive: 0
4,NUMB (UniProt P49757),inactive: 0
5,PEX12 (UniProt O00623),inactive: 0
6,NSUN3 (UniProt Q9H649),inactive: 0
7,P2RY2 (UniProt P41231),inactive: 0
8,NUDT18 (UniProt Q6ZVK8),inactive: 0
9,PGAP1 (UniProt Q75T13),inactive: 0
10,PGAM1 (UniProt P18669),active: 1
11,PDXDC1 (UniProt Q6P996),inactive: 0
12,PFKFB3 (UniProt Q16875),inactive: 0
13,NUBP2 (UniProt Q9Y5Y2),inactive: 0
14,PGAM5 (UniProt Q96HS1),inactive: 0
15,PACS2 (UniProt Q86VP3),inactive: 0
16,PARVB (UniProt Q9HBI1),inactive: 0
17,PANK3 (UniProt Q9H999),inactive: 0
18,PDIA5 (UniProt Q14554),inactive: 0

# Individual results from above.
# dose-dependent thermal stabilisation call, PACS2 (UniProt Q86VP3) reads inactive: 0
# dose-dependent thermal stabilisation call, NSUN3 (UniProt Q9H649) reads inactive: 0
# dose-dependent thermal stabilisation call, NXF3 (UniProt Q9H4D5) reads inactive: 0
